The chains behind the UniProt entries cited, without tags or fusion partners. Where a name states a change or a piece, a line headed by the entry shows the natural chain unless it says otherwise. Residues count along the entry.
UniProt P11717, residues 41-2491: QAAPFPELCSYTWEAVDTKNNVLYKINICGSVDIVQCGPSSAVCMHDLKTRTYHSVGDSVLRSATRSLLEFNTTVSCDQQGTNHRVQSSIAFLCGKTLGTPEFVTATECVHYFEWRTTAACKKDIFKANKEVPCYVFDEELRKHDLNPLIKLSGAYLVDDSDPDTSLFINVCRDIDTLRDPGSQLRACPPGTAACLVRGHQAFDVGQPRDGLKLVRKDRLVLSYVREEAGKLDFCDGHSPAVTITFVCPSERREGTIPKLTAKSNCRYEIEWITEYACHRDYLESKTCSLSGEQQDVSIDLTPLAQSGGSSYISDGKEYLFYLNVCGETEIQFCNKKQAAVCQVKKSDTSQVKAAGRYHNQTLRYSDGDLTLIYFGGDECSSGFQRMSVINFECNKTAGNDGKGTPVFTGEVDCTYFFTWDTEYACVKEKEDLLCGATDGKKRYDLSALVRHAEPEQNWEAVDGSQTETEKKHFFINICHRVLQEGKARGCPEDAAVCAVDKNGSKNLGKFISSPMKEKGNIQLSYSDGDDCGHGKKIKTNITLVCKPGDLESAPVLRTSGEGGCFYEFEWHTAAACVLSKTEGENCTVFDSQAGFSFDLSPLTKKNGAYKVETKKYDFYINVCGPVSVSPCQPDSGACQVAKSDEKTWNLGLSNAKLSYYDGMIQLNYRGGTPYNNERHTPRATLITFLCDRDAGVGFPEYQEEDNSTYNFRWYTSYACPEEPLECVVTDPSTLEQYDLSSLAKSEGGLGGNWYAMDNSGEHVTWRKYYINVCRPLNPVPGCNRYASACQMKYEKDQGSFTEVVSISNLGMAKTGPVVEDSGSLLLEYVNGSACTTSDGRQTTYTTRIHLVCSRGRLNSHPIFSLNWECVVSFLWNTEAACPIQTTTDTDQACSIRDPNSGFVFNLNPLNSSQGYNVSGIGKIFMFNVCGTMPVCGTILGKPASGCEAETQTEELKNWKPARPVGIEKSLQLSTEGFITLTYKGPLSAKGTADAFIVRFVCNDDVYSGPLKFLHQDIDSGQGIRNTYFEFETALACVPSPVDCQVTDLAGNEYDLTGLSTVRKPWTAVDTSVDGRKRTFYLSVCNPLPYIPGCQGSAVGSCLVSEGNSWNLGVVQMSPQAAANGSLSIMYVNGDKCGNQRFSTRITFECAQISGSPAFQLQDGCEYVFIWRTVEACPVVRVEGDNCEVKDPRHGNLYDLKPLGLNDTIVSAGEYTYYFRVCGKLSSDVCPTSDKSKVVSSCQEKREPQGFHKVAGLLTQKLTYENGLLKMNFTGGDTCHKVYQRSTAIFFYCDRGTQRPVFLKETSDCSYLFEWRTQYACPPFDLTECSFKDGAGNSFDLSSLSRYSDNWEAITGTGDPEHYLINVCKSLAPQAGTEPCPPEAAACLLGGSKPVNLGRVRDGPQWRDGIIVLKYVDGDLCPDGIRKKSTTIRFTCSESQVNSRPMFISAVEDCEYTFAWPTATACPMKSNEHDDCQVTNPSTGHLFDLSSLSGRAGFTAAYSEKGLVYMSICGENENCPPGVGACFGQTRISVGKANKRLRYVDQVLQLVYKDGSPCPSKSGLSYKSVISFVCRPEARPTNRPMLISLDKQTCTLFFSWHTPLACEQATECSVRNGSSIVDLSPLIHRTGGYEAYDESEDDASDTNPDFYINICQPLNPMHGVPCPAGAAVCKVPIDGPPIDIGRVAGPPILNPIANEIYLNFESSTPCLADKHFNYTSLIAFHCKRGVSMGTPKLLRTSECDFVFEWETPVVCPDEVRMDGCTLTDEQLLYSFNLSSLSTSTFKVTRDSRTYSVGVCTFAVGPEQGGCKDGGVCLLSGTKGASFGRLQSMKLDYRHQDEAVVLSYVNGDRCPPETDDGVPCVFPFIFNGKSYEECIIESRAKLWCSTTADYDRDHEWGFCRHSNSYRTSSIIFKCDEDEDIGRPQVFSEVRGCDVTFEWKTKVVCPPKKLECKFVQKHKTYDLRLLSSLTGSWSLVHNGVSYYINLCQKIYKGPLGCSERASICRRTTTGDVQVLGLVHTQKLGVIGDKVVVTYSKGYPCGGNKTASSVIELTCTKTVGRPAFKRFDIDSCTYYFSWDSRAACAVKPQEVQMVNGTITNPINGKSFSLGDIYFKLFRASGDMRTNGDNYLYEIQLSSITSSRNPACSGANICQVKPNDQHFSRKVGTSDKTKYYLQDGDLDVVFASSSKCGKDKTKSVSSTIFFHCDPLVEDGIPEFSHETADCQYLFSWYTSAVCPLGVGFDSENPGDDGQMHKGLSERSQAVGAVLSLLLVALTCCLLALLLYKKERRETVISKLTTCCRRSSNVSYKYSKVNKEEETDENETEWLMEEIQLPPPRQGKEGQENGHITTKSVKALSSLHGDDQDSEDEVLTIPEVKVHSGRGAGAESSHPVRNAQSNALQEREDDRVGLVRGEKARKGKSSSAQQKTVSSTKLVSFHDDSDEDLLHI
UniProt P07686: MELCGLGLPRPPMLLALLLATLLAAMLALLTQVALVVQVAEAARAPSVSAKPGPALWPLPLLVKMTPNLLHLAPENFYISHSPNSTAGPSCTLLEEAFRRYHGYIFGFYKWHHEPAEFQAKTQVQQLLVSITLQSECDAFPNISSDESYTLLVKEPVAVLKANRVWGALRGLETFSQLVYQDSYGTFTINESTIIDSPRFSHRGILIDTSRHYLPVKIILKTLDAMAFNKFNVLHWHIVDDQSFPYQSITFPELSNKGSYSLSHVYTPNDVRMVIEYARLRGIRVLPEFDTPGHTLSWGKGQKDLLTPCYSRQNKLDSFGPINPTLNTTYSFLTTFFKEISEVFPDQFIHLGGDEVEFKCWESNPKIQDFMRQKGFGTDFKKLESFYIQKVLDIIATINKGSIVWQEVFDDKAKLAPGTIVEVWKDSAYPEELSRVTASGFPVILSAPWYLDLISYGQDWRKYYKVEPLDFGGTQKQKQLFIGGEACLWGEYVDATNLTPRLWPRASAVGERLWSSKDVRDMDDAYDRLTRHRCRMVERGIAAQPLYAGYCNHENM
UniProt Q9H1D0: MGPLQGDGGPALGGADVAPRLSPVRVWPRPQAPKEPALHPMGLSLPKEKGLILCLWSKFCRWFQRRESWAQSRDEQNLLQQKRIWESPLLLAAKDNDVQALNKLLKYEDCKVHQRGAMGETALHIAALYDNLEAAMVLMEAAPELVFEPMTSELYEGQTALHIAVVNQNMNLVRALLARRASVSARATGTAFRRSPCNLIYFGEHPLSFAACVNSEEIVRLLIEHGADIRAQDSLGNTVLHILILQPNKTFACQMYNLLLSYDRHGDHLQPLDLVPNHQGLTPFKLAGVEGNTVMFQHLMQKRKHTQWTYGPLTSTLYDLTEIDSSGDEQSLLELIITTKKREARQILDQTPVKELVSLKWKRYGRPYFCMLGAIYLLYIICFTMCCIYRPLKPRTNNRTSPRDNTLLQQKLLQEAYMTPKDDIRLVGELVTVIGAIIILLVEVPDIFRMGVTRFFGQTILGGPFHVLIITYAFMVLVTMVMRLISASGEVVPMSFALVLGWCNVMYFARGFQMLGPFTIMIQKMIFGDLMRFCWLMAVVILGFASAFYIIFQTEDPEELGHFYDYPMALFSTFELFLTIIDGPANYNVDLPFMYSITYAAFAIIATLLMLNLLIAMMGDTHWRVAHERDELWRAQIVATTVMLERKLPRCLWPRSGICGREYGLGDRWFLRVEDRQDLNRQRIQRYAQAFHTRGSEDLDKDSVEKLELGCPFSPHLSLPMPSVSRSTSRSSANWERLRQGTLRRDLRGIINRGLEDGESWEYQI

In PMC12837008:

target: IGF2ReGFP (cation independent mannose-6-phosphate receptor, CI-M6PR/IGF2R, fused to eGFP) (human (cloned from BeWo cDNA)) (UniProt P11717); experiment: affinity purification with mass spectrometry; eluates of the same immunoprecipitates (TRPV6 antibody, GFP antibody, IgG controls) from TRPV6 and IGF2R transfected HEK cells; in-gel tryptic digest, label free LC-ESI-HRMS/MS, n = 3

binding | Molecule
binds | beta-hexosaminidase subunit beta (HEXB) (from UniProt P07686) (enzyme)
binds | TRPV6mRFP (TRPV6 fused to mRFP) (from UniProt Q9H1D0 1-765)
binds | lysosomal alpha-mannosidase (MA2B1) (enzyme, UniProt O00754 50-1011) GGYETCPTVQPNMLNVHLLPHTHDDVGWLKTVDQYFYGIKNDIQHAGVQYILDSVISALLADPTRRFIYVEIAFFSRWWHQQTNATQEVVRDLVRQGRLEFANGGWVMNDEAATHYGAIVDQMTLGLRFLEDTFGNDGRPRVAWHIDPFGHSREQASLFAQMGFDGFFFGRLDYQDKWVRMQKLEMEQVWRASTSLKPPTADLFTGVLPNGYNPPRNLCWDVLCVDQPLVEDPRSPEYNAKELVDYFLNVATAQGRYYRTNHTVMTMGSDFQYENANMWFKNLDKLIRLVNAQQAKGSSVHVLYSTPACYLWELNKANLTWSVKHDDFFPYADGPHQFWTGYFSSRPALKRYERLSYNFLQVCNQLEALVGLAANVGPYGSGDSAPLNEAMAVLQHHDAVSGTSRQHVANDYARQLAAGWGPCEVLLSNALARLRGFKDHFTFCQQLNISICPLSQTAARFQVIVYNPLGRKVNWMVRLPVSEGVFVVKDPNGRTVPSDVVIFPSSDSQAHPPELLFSASLPALGFSTYSVAQVPRWKPQARAPQPIPRRSWSPALTIENEHIRATFDPDTGLLMEIMNMNQQLLLPVRQTFFWYNASIGDNESDQASGAYIFRPNQQKPLPVSRWAQIHLVKTPLVQEVHQNFSAWCSQVVRLYPGQRHLELEWSVGPIPVGDTWGKEVISRFDTPLETKGRFYTDSNGREILERRRDYRPTWKLNQTEPVAGNYYPVNTRIYITDGNMQLTVLTDRSQGGSSLRDGSLELMVHRRLLKDDGRGVSEPLMENGSGAWVRGRHLVLLDTAQAAAAGHRLLAEQEVLAPQVVLAPGGGAAYNLGAPPRTQFSGLRRDLPPSVHLLTLASWGPEMVLLRLEHQFAVGEDSGRNLSAPVTLNLRDLFSTFTITRLQETTLVANQLREAASRLKWTTNTGPTPHQTPYQLDPANITLEPMEIRTFLASVQWKEVDG
binds | N-acetylcosamin-6-sulfatase (GNS) (enzyme, UniProt P15586 37-552) VFGVAAGTRRPNVVLLLTDDQDEVLGGMTPLKKTKALIGEMGMTFSSAYVPSALCCPSRASILTGKYPHNHHVVNNTLEGNCSSKSWQKIQEPNTFPAILRSMCGYQTFFAGKYLNEYGAPDAGGLEHVPLGWSYWYALEKNSKYYNYTLSINGKARKHGENYSVDYLTDVLANVSLDFLDYKSNFEPFFMMIATPAPHSPWTAAPQYQKAFQNVFAPRNKNFNIHGTNKHWLIRQAKTPMTNSSIQFLDNAFRKRWQTLLSVDDLVEKLVKRLEFTGELNNTYIFYTSDNGYHTGQFSLPIDKRQLYEFDIKVPLLVRGPGIKPNQTSKMLVANIDLGPTILDIAGYDLNKTQMDGMSLLPILRGASNLTWRSDVLVEYQGEGRNVTDPTCPSLSPGVSQCFPDCVCEDAYNNTYACVRTMSALWNLQYCEFDDQEVFVEVYNLTADPDQITNIAKTIDPELLGKMNYRLMMLQSCSGPTCRTPGVFDPGYRFDPRLMFSNRGSVRTRRFSKHLL
binds | beta-Glucoronidase (BGLR) (enzyme, UniProt P08236 23-651) LQGGMLYPQESPSRECKELDGLWSFRADFSDNRRRGFEEQWYRRPLWESGPTVDMPVPSSFNDISQDWRLRHFVGWVWYEREVILPERWTQDLRTRVVLRIGSAHSYAIVWVNGVDTLEHEGGYLPFEADISNLVQVGPLPSRLRITIAINNTLTPTTLPPGTIQYLTDTSKYPKGYFVQNTYFDFFNYAGLQRSVLLYTTPTTYIDDITVTTSVEQDSGLVNYQISVKGSNLFKLEVRLLDAENKVVANGTGTQGQLKVPGVSLWWPYLMHERPAYLYSLEVQLTAQTSLGPVSDFYTLPVGIRTVAVTKSQFLINGKPFYFHGVNKHEDADIRGKGFDWPLLVKDFNLLRWLGANAFRTSHYPYAEEVMQMCDRYGIVVIDECPGVGLALPQFFNNVSLHHHMQVMEEVVRRDKNHPAVVMWSVANEPASHLESAGYYLKMVIAHTKSLDPSRPVTFVSNSNYAADKGAPYVDVICLNSYYSWYHDYGHLELIQLQLATQFENWYKKYQKPIIQSEYGAETIAGFHQDPPLMFTEEYQKSLLEQYHLGLDQKRRKYVVGELIWNFADFMTEQSPTRVLGNKKGIFTRQRQPKSAAFLLRERYWKIANETRYPHSVAKSQCLENSLFT
binds | lysosomal-Pro-X-carboxypeptidase (PCP, PRCP) (enzyme, UniProt P42785 46-496) KNYSVLYFQQKVDHFGFNTVKTFNQRYLVADKYWKKNGGSILFYTGNEGDIIWFCNNTGFMWDVAEELKAMLVFAEHRYYGESLPFGDNSFKDSRHLNFLTSEQALADFAELIKHLKRTIPGAENQPVIAIGGSYGGMLAAWFRMKYPHMVVGALAASAPIWQFEDLVPCGVFMKIVTTDFRKSGPHCSESIHRSWDAINRLSNTGSGLQWLTGALHLCSPLTSQDIQHLKDWISETWVNLAMVDYPYASNFLQPLPAWPIKVVCQYLKNPNVSDSLLLQNIFQALNVYYNYSGQVKCLNISETATSSLGTLGWSYQACTEVVMPFCTNGVDDMFEPHSWNLKELSDDCFQQWGVRPRPSWITTMYGGKNISSHTNIVFSNGELDPWSGGGVTKDITDTLVAVTISEGAHHLDLRTKNALDPMSVLLARSLEVRHMKNWIRDFYDSAGKQH

These are yes or no findings as the source states them, for the method shown. In cells and extracts the contact can be indirect. Here binding means that the protein was enriched with, or labelled near, the bait; the list need not be complete. Where a sequence is shown, tags or fusion partners need not be part of it.
